Results as given in patent US20100248359A1.
Results are given in words; binding and its absence hold for the method and conditions named. Some results given as binding are weak or reduced against the parent protein; the word gives no strength.

The chains behind the UniProt entries cited, without tags or fusion partners. Residues count along the entry.
UniProt P51654, residues 25-358: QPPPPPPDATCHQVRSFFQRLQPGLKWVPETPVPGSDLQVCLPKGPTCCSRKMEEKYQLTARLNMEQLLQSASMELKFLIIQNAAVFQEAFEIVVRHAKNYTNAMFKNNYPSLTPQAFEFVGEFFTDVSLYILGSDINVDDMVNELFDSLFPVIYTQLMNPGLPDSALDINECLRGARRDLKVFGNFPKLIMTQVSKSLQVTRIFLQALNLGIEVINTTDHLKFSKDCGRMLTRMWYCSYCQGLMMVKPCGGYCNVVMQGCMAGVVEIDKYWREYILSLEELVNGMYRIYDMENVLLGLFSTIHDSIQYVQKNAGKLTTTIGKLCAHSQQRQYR

Experiments:
[1] = biological target: secreted form of GPC3 in the culture supernatant of HepG2 (human) (UniProt P51654); experiment: sandwich ELISA of HepG2 culture supernatant
[2] = biological target: secreted form of GPC3 in the culture supernatant of HepG2 (human) (UniProt P51654); experiment: immunoprecipitation of HepG2 culture supernatant
[3] = biological target: secreted form of GPC3 in the culture supernatant of HepG2 (human) (UniProt P51654); experiment: sandwich ELISA of the culture supernatant of HepG2; plate-coated capture antibody, biotin-labelled developing antibody
[4] = biological target: secreted form of GPC3 in the culture supernatant of HepG2 (human) (UniProt P51654); experiment: immunoprecipitation of the culture supernatant of HepG2, detection of secreted GPC3
[5] = biological target: C-terminal fragment of 30 kDa of the soluble form of GPC3 core protein (human) (UniProt P51654); experiment: Western blotting (Example 11), told in Example 12
[6] = biological target: GC-2 (GST fusion of GPC3 Gly510 to Lys563) (human) (UniProt P51654); experiment: Western blotting of GST-fusion proteins, reducing SDS-PAGE
[7] = biological target: GC-1 (GST fusion of GPC3 Ser495 to Lys563) (human) (UniProt P51654); experiment: as above
[8] = biological target: N-terminal fragment of 40 kDa of the soluble form of GPC3 core protein (human) (UniProt P51654); experiment: Western blotting (Example 11), told in Example 12
[9] = biological target: N-terminal fragment of 40 kDa of the soluble form of GPC3 core protein (human) (UniProt P51654); experiment: told in the legend of FIG. 4

| Binder | binding [1] | binding [2] | binding [3] | binding [4] | binding [5] | binding [6] | binding [7] | binding [8] | binding [9] |
| --- | --- | --- | --- | --- | --- | --- | --- | --- | --- |
| M6B1 (antibody, V domains shown) VH: EVQLVESGGDLVKPGGSLKLSCAASGFTFSSYAMSWVRQTPEKRLEWVAAINSNGGTTYYPDTMKDRFTISRDNAKNTLYLQMSSLRSEDSALYYCTRHNGGYENYGWFAYWGQGTLVTVSA VL: DIQMTQSPSSLSASLGGKVTITCKASQDINKNIIWYQHKPGKGPRLLIWYTSTLQPGIPSRFSGSGSGRDYSFSISNLEPEDIATYYCLQYDNLPRTFGGGTKLEIK | binds | binds | binds | binds |  |  |  |  |  |
| M1E7 (antibody, human IgG1, kappa, V domains shown) VH: EVQLQQSGPELVKPGASVKISCKASGYSFTGYYMHWVKQSPEKSLEWIGEINPSTGGTTYNQKFKAKATLTVDKSSSTAYMQLKSLTSEDSAVYYCARRGGLTGTSFFAYWGQGTLVTVSA VL: DVVMTQTPLSLSVTIGQPASISCKSSQSLLYSNGKTYLNWLQQRPGQAPKHLMYQVSKLDPGIPDRFSGSGSETDFTLKISRVEAEDLGVYYCLQSTYYPLTFGAGTKLELKR |  |  |  |  | binds | binds | binds |  |  |
| M5B9 (antibody, V domains shown) VH: EVQLQQSGTVLARPGASVKMSCKASGYTFTGYWMHWVKQRPGQGLEWIGAIYPGNSDTNYNQKFKGKAKLTAVTSASTAYMELSSLTNEDAAVYHCTRSGDLTGGLAYWGQGTLVTVSA VL: DIVMTQAAFSNPVTLGTSASISCRSSKSLLHSNGITYLYWFLQKPGQSPQLLIYQMSNLASGVPDRFSSSGSGTDFTLRISRVEAEDVGVYYCAQNLELPYTFGSGTKLEIK |  | binds |  | binds |  |  |  |  |  |

Further lines, results first:

| binding [1] | binding [2] | binding [3] | binding [4] | binding [5] | binding [6] | binding [7] | binding [8] | binding [9] | Binder |
| --- | --- | --- | --- | --- | --- | --- | --- | --- | --- |
|  | binds |  | binds |  |  |  |  |  | L9G11 (antibody, V domains shown) VH: QVQLQQPGAELVKPGASVKLSCKASGYTFTSYWMHWVKQRPGQGLEWIGTIDPSDSETHYNLQFKDTATLTVDKSSSTAYMQLSSLTSEDSAVYYCIRGAFYSSYSYWAWFAYWGQGTLVTVSA VL: DIVLTQSPTSLAVSLGQSVTISCRASESVEYYGTSLMQWYQQKPGQPPKLLIYGASNVESGVPARFSGSGSGTDFSLNIHPVEEDDIAMYFCQQSRKVPYTFGSGTKLEIK |
|  | binds |  | binds |  |  |  |  |  | M10D2 (antibody, V domains shown) VH: QVQLQQPGAELVKPGASVKLSCKASGYTFTSYWMHWVKQRPGQGLEWIGEIDPSDSYTYYNQKFRGKATLTVDKSSNTAYMQLSSLTSEDSAVYYCSRSNLGDGHYRFPAFPYWGQGTLVTVSA VL: DIVLTQSPATLSVTPGDRVSLSCRASHSISNFLHWYPQKSHESPRLLIKYASQSISGIPSRFSGNGSGTDFTLSINSVETEDFGMYFCQQSNIWSLTFGAGTKLELK |
| binds | binds | binds | binds |  |  |  | binds | binds | M18D4 (antibody, human IgG1, kappa, V domains shown) VH: EVQLQQSGTVLARPGASVKMSCKASGYTFTGYWMRWVKQRPGQGLEWIGAIYPGNSDTTYNQKFKGKAKLTAVTSVSTAYMELSSLTNEDSAVYYCSRSGDLTGGFAYWGQGTLVTVST VL: DIVMTQAAFSNPVTLGTSTSISCRSSKSLLHSNGITYLYWYLQKPGQSPQLLIYQMSNLASGVPDRFSSSGSGTDFTLRISRVEAEDVGVYYCAQNLELPYTFGSGTKLEIKR |
